At least one compound was matched to its structure with a doubt left.
Key:
[1] = system: antigen expressed on human T cells; experiment: Potency testing by FACS binding assay (flow cytometry); conditions: 1 week at 45 ° C.
Protocol: Because of the results seen in the preliminary evaluation, additional analyses were done using lower concentrations of the preservatives.
The biological activity (potency) of the protein was measured by flow cytometry, based on the binding of the antibody antigen expressed on human T cells.

[2] = system: Candida albicans, and Aspergillus niger; experiment: Preservative screening test (modified USP/EP preservative efficacy test), fungi; assay type: cell-based; conditions: 7 days; at least 0.5% benzyl alcohol; parabens and chlorobutanol at their highest concentration
Protocol: The efficacy of the preservative against various microorganisms was measured using a modified USP/EP preservative efficacy test. These tests were conducted at Microconsult Inc. (Dallas, Tex.). In the procedure, formulations were tested against the following microorganisms: Escherichia coli, Staphylococcus aureus, Pseudomonas aeruginosa, Candida albicans, and Aspergillus niger. The three bacterial strains were inoculated together at a total concentration of ˜10^5 cfu/mL, and the two fungi were inoculated together at a total concentration of ˜10^5 cfu/mL. Samples were incubated for 7 days at room temperature (25° C.), and the total bacterial and fungal counts were measured using a colony counter. The log reduction (LR) values for the bacterial and fungal counts were calculated as log (initial count/final count). […]
(§1) The formulations were prepared by adding the preservatives at the desired concentrations as per the I-optimal design table (Table II), generated using the software Strategy (Experiment Strategies Foundation & Process Builder, Inc.). […] The biological activity of the samples was assessed after 1 month at 37° C. […] Samples were incubated at room temperature, and the aerobic plate counts were measured based on the minimum requirements of the USP and BP/EP preservative efficacy tests at 24 hours, 7 days, and 14 days.

[3] = system: formulated humanized monoclonal antibody; experiment: Visual analysis of the antibody formulation with preservative; assay type: physicochemical; conditions: for Visual analysis: after 2 days at 50° C.
Protocol: (§2) The compatibility of six parenteral preservatives (benzyl alcohol, chlorobutanol, methyl paraben, propyl paraben, phenol, and m-cresol) with the formulated humanized monoclonal antibody was tested. The preservatives were added to the formulated antibody based on their commonly used concentration ranges in marketed multidose products (3). Protein aggregation was suspected to be the primary degradation pathway. Preliminary evaluation of the preservatives was done initially by DSC and after 2 days of incubation at 50° C. by visual inspection for appearance and by SEC for soluble aggregates.

[4] = system: formulated humanized monoclonal antibody; experiment: Differential scanning calorimetry (DSC), denaturation temperature; assay type: physicochemical; conditions: for Tm (by DSC): initial time point, t0
Protocol: as §2
A decrease in the denaturation temperature reflects a destabilizing effect of the preservative on formulation stability. The denaturation temperature (Tm) of the sample was measured using the Pyris 1 differential scanning calorimeter (Perkin Elmer). A sample volume of 50 μL was taken from a 10 mg/mL protein sample and sealed in a stainless steel pan. The sample was held at 32° C. for 2 minutes, and heated to 100° C. at the rate of 10° C./min.

[5] = system: Escherichia coli, Staphylococcus aureus, Pseudomonas aeruginosa; experiment: Preservative screening test (modified USP/EP preservative efficacy test), bacteria; assay type: cell-based; conditions: for Bacterial × 10^4 (cfu/mL): 1 week at 25 ° C., total bacterial count 8.78 × 10^4 cfu/mL
Protocol: The efficacy of the preservative against various microorganisms was measured using a modified USP/EP preservative efficacy test. These tests were conducted at Microconsult Inc. (Dallas, Tex.). In the procedure, formulations were tested against the following microorganisms: Escherichia coli, Staphylococcus aureus, Pseudomonas aeruginosa, Candida albicans, and Aspergillus niger. The three bacterial strains were inoculated together at a total concentration of ˜10^5 cfu/mL, and the two fungi were inoculated together at a total concentration of ˜10^5 cfu/mL. Samples were incubated for 7 days at room temperature (25° C.), and the total bacterial and fungal counts were measured using a colony counter. The log reduction (LR) values for the bacterial and fungal counts were calculated as log (initial count/final count).
In the unmodified USP/EP preservative efficacy tests, each microorganism is tested separately at a concentration of ˜10^5 cfu/mL. […] The preservative efficacy test was modified in this study to reduce the total sample requirement and cost per analysis. Although the bacterial and fungal strains were not tested individually at specified concentrations, by comparing the overall bacterial and fungal log reduction values with the regulatory requirements, an assessment is made of the efficacy of the preservative against these microorganisms.
as §1, with “Inc.). All samples were incubated at 37° C. for 9 weeks.” for “Inc.).”

## CC(C)(O)C(Cl)(Cl)Cl [Chlorobutanol, chlorobutanol]
[1]; preservative 0.05%
  Potency (%): 60%
[1]; preservative 0.1%
  Potency (%): 67%
[1]; preservative 0.2%
  Potency (%): 63%
[2]
  antimicrobial efficacy against fungi (in words): satisfactory
[3]; all tested concentrations, 2 days at 50° C.
  Visual appearance of the formulations (in words): clear
[3]; preservative 0.1%
  Visual analysis: Clear
[3]; preservative 0.2%
  Visual analysis: Clear
[3]; preservative 0.5%
  Visual analysis: Clear
[4]; 0.5% chlorobutanol
  Tm drop relative to the control formulation: 1.5 °C
[4]; preservative 0.2%
  Tm (by DSC): 79.9 °C
[4]; preservative 0.5%
  Tm (by DSC): 78.5 °C
[5]; I-optimal design, 14 days at room temperature
  antimicrobial efficacy against bacteria (regression analysis, in words): statistically significant antimicrobial efficacy
[5]; preservative 0.05%
  Bacterial × 10^4 (cfu/mL): TNTC
[5]; preservative 0.1%
  Bacterial × 10^4 (cfu/mL): TNTC

— US20040009168A1, “Multidose antibody formulation” (priority 2002, published 2004)
